Reference: the supplement of paper PMC7889204
Structures can show the parent of a compound that is named as a salt. The list shows a part of the results. Repeats are few or missing, and single values can be far off.

System: C6
Assay: cell mass (Coomassie absorbance) after combination of library compound with HMBA, relative to vehicle control (fraction); higher = more remaining cells (less growth inhibition)

Compound	cell mass
NC(=O)c1cccc(-c2cccc(OC(=O)NC3CCCCC3)c2)c1 + CC(=O)NCCCCCCNC(C)=O [hexamethylene bisacetamide]	0.477
C[C@@H]1CN(CC(=O)Nc2ccc3c(c2)Cc2cccc(-c4cc(=O)cc(N5CCOCC5)o4)c2S3)C[C@H](C)O1 + CC(=O)NCCCCCCNC(C)=O [hexamethylene bisacetamide]	0.68
c1ccc2c(CCNc3ccc(Nc4ccncc4)cc3)c[nH]c2c1 + CC(=O)NCCCCCCNC(C)=O [hexamethylene bisacetamide]	0.359
Cc1c(C(=O)Nc2ccc(N3C[C@@H](C)O[C@@H](C)C3)nc2)cccc1-c1ccc(OC(F)(F)F)cc1 + CC(=O)NCCCCCCNC(C)=O [hexamethylene bisacetamide]	0.601
C[C@]12CC[C@@H]3c4ccc(O)cc4C[C@@H](CCCCCCCCC[S+]([O-])CCCC(F)(F)C(F)(F)F)[C@H]3[C@@H]1CC[C@@H]2O (some centres undefined) [Fulvestrant] + CC(=O)NCCCCCCNC(C)=O [hexamethylene bisacetamide]	0.395
COc1ccccc1N1CCN(CCN2C(=O)CC3(CCCC3)CC2=O)CC1 + CC(=O)NCCCCCCNC(C)=O [hexamethylene bisacetamide]	0.865
COc1ccc(S(=O)(=O)Nc2cccnc2Nc2ccc(O)cc2)cc1 + CC(=O)NCCCCCCNC(C)=O [hexamethylene bisacetamide]	0.474
CC[C@H](c1ccc(O)cc1)[C@@H](CC)c1ccc(O)cc1 [Hexestrol] + CC(=O)NCCCCCCNC(C)=O [hexamethylene bisacetamide]	0.616
CC(C)C[C@H](NC(=O)CNC(=O)c1cc(Cl)ccc1Cl)B(O)O + CC(=O)NCCCCCCNC(C)=O [hexamethylene bisacetamide]	0.264
Cc1cnc(Nc2ccc(N3CCN(C)CC3)cc2)nc1Nc1cccc(S(=O)(=O)NC(C)(C)C)c1 + CC(=O)NCCCCCCNC(C)=O [hexamethylene bisacetamide]	0.738
O=P(O)(O)C(O)(Cn1ccnc1)P(=O)(O)O [Zoledronic Acid] + CC(=O)NCCCCCCNC(C)=O [hexamethylene bisacetamide]	0.377
Nc1cccc2c1C(=O)N(C1CCC(=O)NC1=O)C2=O (centres undefined) [Pomalidomide] + CC(=O)NCCCCCCNC(C)=O [hexamethylene bisacetamide]	0.493
CN1CCC(CNc2ccc3ncc(-c4cccc(OC(F)(F)F)c4)n3n2)CC1 + CC(=O)NCCCCCCNC(C)=O [hexamethylene bisacetamide]	0.597
CCCC(CCC)C(=O)O [Sodium valproate] + CC(=O)NCCCCCCNC(C)=O [hexamethylene bisacetamide]	0.603
Cc1cccc(-c2[nH]c(C(C)(C)C)nc2-c2ccc3nccnc3c2)n1 + CC(=O)NCCCCCCNC(C)=O [hexamethylene bisacetamide]	0.447
COc1cc(Nc2ncc(F)c(Nc3ccc4c(n3)NC(=O)C(C)(C)O4)n2)cc(OC)c1OC + CC(=O)NCCCCCCNC(C)=O [hexamethylene bisacetamide]	0.548
c1ccc2c(-c3cnn4cc(-c5ccc(N6CCNCC6)cc5)cnc34)ccnc2c1 + CC(=O)NCCCCCCNC(C)=O [hexamethylene bisacetamide]	0.327
C[C@@H](Oc1cc(-n2cnc3ccc(CN4CCN(C)CC4)cc32)sc1C(N)=O)c1ccccc1C(F)(F)F + CC(=O)NCCCCCCNC(C)=O [hexamethylene bisacetamide]	0.144
COC(=O)Nc1ccc(-c2nc(N3CCOCC3)c3cnn(C4CCN(Cc5cccnc5)CC4)c3n2)cc1 + CC(=O)NCCCCCCNC(C)=O [hexamethylene bisacetamide]	0.612
O=C(O)CC[C@H]1CC[C@@](c2cc(F)ccc2F)(S(=O)(=O)c2ccc(Cl)cc2)CC1 + CC(=O)NCCCCCCNC(C)=O [hexamethylene bisacetamide]	0.592

Quoted at random: two records from the list, in no set order.
Compound	cell mass
Cc1c(C(=O)Nc2ccc(N3C[C@@H](C)O[C@@H](C)C3)nc2)cccc1-c1ccc(OC(F)(F)F)cc1 + CC(=O)NCCCCCCNC(C)=O [hexamethylene bisacetamide]	0.601
C[C@]12CC[C@@H]3c4ccc(O)cc4C[C@@H](CCCCCCCCC[S+]([O-])CCCC(F)(F)C(F)(F)F)[C@H]3[C@@H]1CC[C@@H]2O (some centres undefined) [Fulvestrant] + CC(=O)NCCCCCCNC(C)=O [hexamethylene bisacetamide]	0.395

(list continues)

Compound	cell mass
Oc1nc(-c2ccc(C(F)(F)F)cc2)nc2c1CSCC2 + CC(=O)NCCCCCCNC(C)=O [hexamethylene bisacetamide]	0.454
COC(=O)N[C@H](C(=O)N[C@@H](Cc1ccccc1)[C@@H](O)CN(Cc1ccc(-c2ccccn2)cc1)NC(=O)[C@@H](NC(=O)OC)C(C)(C)C)C(C)(C)C [Atazanavir sulfate] + CC(=O)NCCCCCCNC(C)=O [hexamethylene bisacetamide]	0.866
O=C1[C@H](Cc2ccc(O)cc2)N2C(=O)CCN(C(=O)NCc3ccccc3)[C@H]2CN1Cc1cccc2ccccc12 + CC(=O)NCCCCCCNC(C)=O [hexamethylene bisacetamide]	0.433
COc1cc(Nc2ncc(F)c(Nc3ccc4c(n3)N(COP(=O)(O)O)C(=O)C(C)(C)O4)n2)cc(OC)c1OC + CC(=O)NCCCCCCNC(C)=O [hexamethylene bisacetamide]	0.378
Cc1ccc(NC(=O)c2ccc(CN3CCN(C)CC3)cc2)cc1Nc1nccc(-c2cccnc2)n1 [Imatinib(STI571)] + CC(=O)NCCCCCCNC(C)=O [hexamethylene bisacetamide]	0.656
CO[C@H]1/C=C\C=C(/C)C(=O)NC2=CC(=O)C(NCCN(C)C)=C(C[C@@H](C)C[C@H](OC)[C@H](O)[C@@H](C)/C=C(\C)[C@@H]1OC(N)=O)C2=O + CC(=O)NCCCCCCNC(C)=O [hexamethylene bisacetamide]	0.247
CC(C)CC(=O)Nc1n[nH]c2c1CN(C(=O)C1CCN(C)CC1)C2(C)C + CC(=O)NCCCCCCNC(C)=O [hexamethylene bisacetamide]	0.825
Cc1cc(C(C)Nc2ccccc2)c2nc(N3CCOCC3)cc(=O)n2c1 (centres undefined) + CC(=O)NCCCCCCNC(C)=O [hexamethylene bisacetamide]	0.641
COc1nc(C)cnc1NS(=O)(=O)c1cccnc1-c1ccc(-c2nnco2)cc1 [Zibotentan(ZD4054)] + CC(=O)NCCCCCCNC(C)=O [hexamethylene bisacetamide]	0.472
CC(C)C[C@H](NC(=O)CNC(=O)c1cc(Cl)ccc1Cl)B1OC(=O)C(CC(=O)O)(CC(=O)O)O1 + CC(=O)NCCCCCCNC(C)=O [hexamethylene bisacetamide]	0.165
O=C1NC(=O)C(=Cc2ccc(-c3ccc(F)cc3)o2)S1 (stereo in doubt) + CC(=O)NCCCCCCNC(C)=O [hexamethylene bisacetamide]	0.695
CCOc1ccn(-c2ccc(F)cc2)c(=O)c1C(=O)Nc1ccc(Oc2ccnc(N)c2Cl)c(F)c1 + CC(=O)NCCCCCCNC(C)=O [hexamethylene bisacetamide]	0.403
Cn1c(Nc2ccc(C(F)(F)F)cc2)nc2cc(Oc3ccnc(-c4ncc(C(F)(F)F)[nH]4)c3)ccc21 + CC(=O)NCCCCCCNC(C)=O [hexamethylene bisacetamide]	0.656
C[C@H](NC(=O)Cc1cc(F)cc(F)c1)C(=O)N[C@@H]1C(=O)N(C)c2ccccc2-c2ccccc21 + CC(=O)NCCCCCCNC(C)=O [hexamethylene bisacetamide]	0.602
O=C1NC(=O)/C(=C/c2ccc(-c3ccc(F)cc3O)o2)S1 + CC(=O)NCCCCCCNC(C)=O [hexamethylene bisacetamide]	0.456
CCCS(=O)(=O)Nc1ccc(F)c(C(=O)c2c[nH]c3ncc(-c4ccc(Cl)cc4)cc23)c1F + CC(=O)NCCCCCCNC(C)=O [hexamethylene bisacetamide]	0.341
CCN(CCO)CCCOc1ccc2c(Nc3cc(CC(=O)Nc4cccc(F)c4)[nH]n3)ncnc2c1 [AZD1152-HQPA(Barasertib)] + CC(=O)NCCCCCCNC(C)=O [hexamethylene bisacetamide]	0.619
O=C(NC1CCNCC1)c1n[nH]cc1NC(=O)c1c(Cl)cccc1Cl + CC(=O)NCCCCCCNC(C)=O [hexamethylene bisacetamide]	0.559
FC(F)(F)c1ccc(/C=C/c2nc(COc3ccc(CCCCn4ccnn4)cc3)co2)cc1 [Mubritinib] + CC(=O)NCCCCCCNC(C)=O [hexamethylene bisacetamide]	0.117
